{"sequences": {"note": "Sequences of proteins named here, by UniProt entry; tags and fusion partners are left off. A change or cut given only in a name is not applied to a line headed by its entry.", "UniProt P48729": "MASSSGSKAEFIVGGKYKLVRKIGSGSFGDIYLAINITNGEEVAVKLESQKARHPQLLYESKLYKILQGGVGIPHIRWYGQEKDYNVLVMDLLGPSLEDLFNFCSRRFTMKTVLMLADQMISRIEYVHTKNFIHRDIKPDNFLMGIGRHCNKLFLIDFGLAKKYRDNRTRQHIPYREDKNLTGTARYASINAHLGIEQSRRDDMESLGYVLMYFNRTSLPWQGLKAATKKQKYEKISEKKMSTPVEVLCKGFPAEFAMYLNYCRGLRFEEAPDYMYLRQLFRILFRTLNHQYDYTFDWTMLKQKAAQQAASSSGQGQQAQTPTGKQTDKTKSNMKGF"}, "source": "the supplement of paper PMC12823440", "about": "“Inhibitors supercharge kinase turnover through native proteolytic circuits” (Nature, 2025)", "note": "The list shows a part of the results. Hit calls seldom repeat between salt and free forms of one compound.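 Kinases, fused to nanoluciferase, were expressed in K562 cells; luminescence was measured every 4 h from 2 to 18 h as percent of control (DMSO = 100%, positive control = 0%). A time point is decreased if signal falls significantly (2 sigma). Hits were called by the authors by a rule that is not shown; the count of time points alone does not decide it.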", "data": [{"biological_target": "CSNK1A1 (UniProt P48729)", "assay": "number of time points (of 5) at which kinase-Nluc abundance scored as decreased, DMSO-normalised (count); higher = more persistent destabilization", "details": "K562; 2-18 h", "values": [{"smiles": "Cc1ccc(-c2ncn(-c3ccc(Nc4nccc(-c5cccc(N6CCOCC6)c5)n4)cc3)n2)cn1", "note": "(10 µM)", "number of time points": 0}, {"smiles": "CC[C@@H]1[C@H](F)C(=O)N[C@@H]1COc1nccc2cc(C(N)=O)c(OC)cc12", "note": "(10 µM)", "number of time points": 0}, {"smiles": "O=C1NC(=O)/C(=C/c2ccc(-c3ccc(F)cc3O)o2)S1", "note": "(10 µM)", "number of time points": 0}, {"smiles": "Cc1cc(Nc2cc(CN3CCOCC3)c3nc(C)c(Cc4ccc(Cl)cc4F)n3n2)n[nH]1", "note": "[Gandotinib] (2.5 µM)", "number of time points": 0}, {"smiles": "CN(C)C(=O)c1ccc(S(=O)(=O)c2ccc(NC(=O)[C@@](C)(O)C(F)(F)F)c(Cl)c2)cc1", "note": "(10 µM)", "number of time points": 0}, {"smiles": "CCc1cccc(CC)c1NC(=O)c1nn(C)c2c1CCc1cnc(Nc3ccc(C(=O)NC4CCN(C)CC4)cc3OC(F)(F)F)nc1-2", "note": "(2 µM)", "number of time points": 0}, {"smiles": "O=C(Nc1ccc(Cl)cc1)C1CCCN(C(=O)c2cccc(-c3ccco3)c2)C1", "note": "(stereo not drawn) (2.5 µM)", "number of time points": 0}, {"smiles": "CN(C)Cc1cccc(N=C(c2ccccc2)c2c(O)[nH]c3cc(C(=O)N(C)C)ccc23)c1", "note": "(10 µM)", "number of time points": 0}, {"smiles": "OCCN(CCO)c1ccc(C(c2ccc(Cl)cc2)c2ccc(N(CCO)CCO)cc2)cc1", "note": "(10 µM)", "number of time points": 1}, {"smiles": "CCOc1ccccc1C=C1C(=O)Nc2ccccc21", "note": "(10 µM)", "number of time points": 0}, {"smiles": "COc1ncc(Nc2ncc([C@@H](C)N3CCN(S(C)(=O)=O)CC3)cc2-c2nc(C)nc(N)n2)cc1F", "note": "(10 µM)", "number of time points": 0}, {"smiles": "O=C(CO)N1CCC(c2n[nH]c(-c3ccc(Cl)cc3)c2-c2ccncn2)CC1", "note": "(10 µM)", "number of time points": 0}, {"smiles": "Cn1ncc(Cl)c1-c1cc(C(=O)N[C@H](CN)Cc2ccc(F)c(F)c2)sc1Cl", "note": "(10 µM)", "number of time points": 0}, {"smiles": "O=c1ccc2ccc(O)c(O)c2o1", "note": "[Daphnetin] (10 µM)", "number of time points": 0}, {"smiles": "O=C(Nc1ccc(Cl)c(Cl)c1)Nc1ccc2nnsc2c1", "note": "(10 µM)", "number of time points": 0}, {"smiles": "O=C(O)c1cc(O)c2c(c1)[C@@H]([C@H]1c3cc(C(=O)O)cc(O)c3C(=O)c3c(O[C@@H]4O[C@H](CO)[C@@H](O)[C@H](O)[C@H]4O)cccc31)c1cccc(O[C@@H]3O[C@H](CO)[C@@H](O)[C@H](O)[C@H]3O)c1C2=O", "note": "[Sennoside B] (2.5 µM)", "number of time points": 0}, {"smiles": "O=c1nc(N2CCOCC2)oc2c(-c3cccc4c3sc3ccccc34)cccc12", "note": "(10 µM)", "number of time points": 0}, {"smiles": "O=C(Nc1cccc(-c2nncn2C2CC2)c1)c1cc(-n2cnc(C3CC3)c2)ccn1", "note": "(10 µM)", "number of time points": 0}, {"smiles": "CSc1ccc(CN2CCCC(Nc3ccc4[nH]ncc4c3)C2)cc1", "note": "(stereo not drawn) [Rho-Kinase-IN-1] (10 µM)", "number of time points": 0}, {"smiles": "Oc1ccccc1C(=S)N1CCCC1", "note": "(10 µM)", "number of time points": 0}, {"smiles": "COC(=O)N[C@@H](C)CNc1nccc(-c2cn(C(C)C)nc2-c2cc(Cl)cc(NS(C)(=O)=O)c2F)n1", "note": "[Encorafenib] (10 µM)", "number of time points": 0}, {"smiles": "C=CS(=O)(=O)c1ccc(Nc2nc(OCC3CCCCC3)c3[nH]cnc3n2)cc1", "note": "(2.5 µM)", "number of time points": 0}, {"smiles": "O=c1[nH]ccc2cc(OC3CCNCC3)ccc12", "note": "(10 µM)", "number of time points": 0}]}]}
